Reference: article PMC10492807

Chains of the proteins cited; added tags and fusions are not shown. Lines headed by an entry give the natural chain unless they say otherwise; changes in a name come on top.
UniProt A0A2X4SXG2: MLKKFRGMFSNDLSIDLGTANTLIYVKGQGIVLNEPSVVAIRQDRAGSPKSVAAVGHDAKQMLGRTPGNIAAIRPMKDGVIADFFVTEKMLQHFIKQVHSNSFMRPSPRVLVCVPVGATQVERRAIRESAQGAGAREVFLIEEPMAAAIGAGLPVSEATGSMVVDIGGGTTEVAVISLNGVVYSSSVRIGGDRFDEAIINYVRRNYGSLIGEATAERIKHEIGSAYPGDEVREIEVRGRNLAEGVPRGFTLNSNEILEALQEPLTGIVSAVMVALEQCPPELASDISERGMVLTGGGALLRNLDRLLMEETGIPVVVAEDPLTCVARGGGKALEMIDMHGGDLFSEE
UniProt A0A2X4TC34: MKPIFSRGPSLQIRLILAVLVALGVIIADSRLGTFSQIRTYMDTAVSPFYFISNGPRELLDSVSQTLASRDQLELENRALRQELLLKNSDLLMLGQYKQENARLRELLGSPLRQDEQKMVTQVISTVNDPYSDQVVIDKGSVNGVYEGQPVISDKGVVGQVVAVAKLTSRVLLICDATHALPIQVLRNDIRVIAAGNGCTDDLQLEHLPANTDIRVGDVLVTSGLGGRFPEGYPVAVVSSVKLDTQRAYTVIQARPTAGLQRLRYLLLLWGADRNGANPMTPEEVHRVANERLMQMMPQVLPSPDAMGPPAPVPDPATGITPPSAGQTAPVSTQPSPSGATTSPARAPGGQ
UniProt A0A4Z0KQS0: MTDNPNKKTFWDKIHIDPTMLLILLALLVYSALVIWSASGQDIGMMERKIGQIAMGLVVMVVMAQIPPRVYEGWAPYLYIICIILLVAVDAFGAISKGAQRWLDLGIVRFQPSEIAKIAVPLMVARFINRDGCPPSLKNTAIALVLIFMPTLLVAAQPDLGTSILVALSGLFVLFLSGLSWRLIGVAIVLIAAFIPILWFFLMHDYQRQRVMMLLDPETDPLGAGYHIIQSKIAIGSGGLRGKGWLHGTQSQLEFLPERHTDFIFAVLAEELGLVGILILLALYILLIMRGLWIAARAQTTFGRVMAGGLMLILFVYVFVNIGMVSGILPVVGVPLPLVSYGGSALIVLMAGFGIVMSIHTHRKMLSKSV
UniProt A0A8G0F5U8: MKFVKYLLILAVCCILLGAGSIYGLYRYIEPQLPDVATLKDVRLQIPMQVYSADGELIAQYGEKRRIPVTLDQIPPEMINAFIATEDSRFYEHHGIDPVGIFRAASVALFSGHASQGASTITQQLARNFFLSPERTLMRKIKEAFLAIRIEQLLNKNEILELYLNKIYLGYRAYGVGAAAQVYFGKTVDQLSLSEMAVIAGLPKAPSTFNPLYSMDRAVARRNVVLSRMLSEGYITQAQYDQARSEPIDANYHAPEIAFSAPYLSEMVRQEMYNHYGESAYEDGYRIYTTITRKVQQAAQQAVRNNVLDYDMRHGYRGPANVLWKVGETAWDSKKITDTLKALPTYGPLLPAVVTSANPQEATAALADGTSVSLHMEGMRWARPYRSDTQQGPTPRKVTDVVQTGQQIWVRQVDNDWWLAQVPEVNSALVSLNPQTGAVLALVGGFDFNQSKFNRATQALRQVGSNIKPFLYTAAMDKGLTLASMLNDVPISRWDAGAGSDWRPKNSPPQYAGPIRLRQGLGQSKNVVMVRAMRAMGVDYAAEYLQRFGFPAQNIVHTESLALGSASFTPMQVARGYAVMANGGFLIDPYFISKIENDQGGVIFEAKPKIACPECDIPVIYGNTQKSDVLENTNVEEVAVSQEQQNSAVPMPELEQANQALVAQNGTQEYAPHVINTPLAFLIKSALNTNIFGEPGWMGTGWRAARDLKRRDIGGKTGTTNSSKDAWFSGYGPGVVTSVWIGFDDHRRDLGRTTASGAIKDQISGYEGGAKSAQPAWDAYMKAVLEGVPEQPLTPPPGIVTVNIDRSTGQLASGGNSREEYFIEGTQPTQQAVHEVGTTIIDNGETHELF

T1: PBP2SAL-3xFLAG (Salmonella enterica serovar Typhimurium) (UniProt E1WGF1)
T1 sequence: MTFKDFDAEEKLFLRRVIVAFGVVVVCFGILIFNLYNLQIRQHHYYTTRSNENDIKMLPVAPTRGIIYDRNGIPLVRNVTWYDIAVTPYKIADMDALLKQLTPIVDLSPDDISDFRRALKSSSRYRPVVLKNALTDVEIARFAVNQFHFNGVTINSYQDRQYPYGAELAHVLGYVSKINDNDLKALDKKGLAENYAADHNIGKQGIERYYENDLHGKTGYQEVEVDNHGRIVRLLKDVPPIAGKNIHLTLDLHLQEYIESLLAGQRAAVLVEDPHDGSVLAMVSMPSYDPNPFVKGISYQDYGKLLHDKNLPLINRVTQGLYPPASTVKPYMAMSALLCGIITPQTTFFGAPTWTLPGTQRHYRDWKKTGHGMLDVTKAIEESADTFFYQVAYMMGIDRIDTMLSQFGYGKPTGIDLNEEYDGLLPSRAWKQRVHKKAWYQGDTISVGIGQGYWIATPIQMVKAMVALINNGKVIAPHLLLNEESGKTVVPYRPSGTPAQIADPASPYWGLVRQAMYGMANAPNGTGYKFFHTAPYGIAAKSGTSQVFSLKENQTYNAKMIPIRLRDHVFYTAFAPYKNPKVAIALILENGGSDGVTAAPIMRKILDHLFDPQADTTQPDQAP


How the values were obtained:
[1] = molecular target: T1, PBP2SAL-3xFLAG (Salmonella enterica serovar Typhimurium); test: affinity purification with mass spectrometry; high-molecular-weight complexes cross-linked in vivo with DSS, pulled down with anti-PBP2 or anti-FLAG (PBP2SAL-3xFLAG) from membrane fractions of WT, ΔmrdA and ΔPBP2SAL cells grown in acidic pH; in-gel trypsin digestion, LC-MS/MS, Skyline
[2] = molecular target: PBP2 (MrdA) (Salmonella enterica serovar Typhimurium (endogenous in strain SV5015, SL1344 hisG+)); test: as above

Row | binding [1] | binding [2] | Molecule
1 | no binding |  | MepS (enzyme)
2 | binds |  | MreB (from UniProt A0A2X4SXG2 1-347)
3 | binds |  | MreC (from UniProt A0A2X4TC34)
4 | no binding |  | PBP2 (MrdA) (enzyme)
5 | binds |  | RodA (MrdB) (from UniProt A0A4Z0KQS0) (enzyme)
6 |  | no binding | PBP2SAL-3xFLAG (enzyme, UniProt E1WGF1 1-623) MTFKDFDAEEKLFLRRVIVAFGVVVVCFGILIFNLYNLQIRQHHYYTTRSNENDIKMLPVAPTRGIIYDRNGIPLVRNVTWYDIAVTPYKIADMDALLKQLTPIVDLSPDDISDFRRALKSSSRYRPVVLKNALTDVEIARFAVNQFHFNGVTINSYQDRQYPYGAELAHVLGYVSKINDNDLKALDKKGLAENYAADHNIGKQGIERYYENDLHGKTGYQEVEVDNHGRIVRLLKDVPPIAGKNIHLTLDLHLQEYIESLLAGQRAAVLVEDPHDGSVLAMVSMPSYDPNPFVKGISYQDYGKLLHDKNLPLINRVTQGLYPPASTVKPYMAMSALLCGIITPQTTFFGAPTWTLPGTQRHYRDWKKTGHGMLDVTKAIEESADTFFYQVAYMMGIDRIDTMLSQFGYGKPTGIDLNEEYDGLLPSRAWKQRVHKKAWYQGDTISVGIGQGYWIATPIQMVKAMVALINNGKVIAPHLLLNEESGKTVVPYRPSGTPAQIADPASPYWGLVRQAMYGMANAPNGTGYKFFHTAPYGIAAKSGTSQVFSLKENQTYNAKMIPIRLRDHVFYTAFAPYKNPKVAIALILENGGSDGVTAAPIMRKILDHLFDPQADTTQPDQAP

Continued, molecule first:

Row | Molecule | binding [1] | binding [2]
7 | DacA (PBP5) (enzyme) | binds | 
8 | DacB (PBP4) (enzyme) | binds | 
9 | DacC (PBP6) (enzyme) | binds | 
10 | DacD (PBP6b) (enzyme) | binds | 
11 | MepM (enzyme) | no binding | 
12 | PBP1a (from UniProt A0A8G0F5U8) (enzyme) | binds weakly | 
13 | PBP1b (enzyme) | binds | 
14 | RodZ | binds | 

Results are given in words; binding and its absence hold for the method and conditions named. Binding seen in cells or lysates may run through a third protein. Here binding means that the protein was enriched with, or labelled near, the bait; the list need not be complete. A no says only that the protein was not detected with the bait. Where a sequence is shown, tags or fusion partners need not be part of it.
